Results on one substance are retold here after paper doi:10.1101/2022.07.24.501280.

These are yes or no findings as the source states them, for the method shown. In cells and extracts the contact can be indirect.

In this test the target is HA tagged PERK Δloop (UniProt Q9Z2B5). The test is described as follows: co-IP.

For the substance “eIF2α (in HEK 293 cells) (from UniProt P05198 1-315)”, the binding entry is “no binding”.
